Source: the supplement of paper PMC6078165
Values are relative to the signal before dosing, not to a vehicle control; the signal also falls without drug.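 Labels refer to human fibroblasts, largely primary: uterine (C12385, HUF), lung (H6013), bone (Hs27A), adrenal (HADF), skin (WS1), plus mammary HMF and breast cancer-associated Hs343T. Cancer lines are basal-like or mesenchymal-like triple-negative breast cancer. The paper counts as hits responses shifting over 3x the replicate standard deviation. The tissue of the other fibroblasts is not given here.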

Test system: MDAMB436
Assay: relative JC-1 red fluorescence (viability) vs pre-drug, coculture with fibroblast (fraction); higher = more viable cancer cells
Experimental: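 JC-1 labelled TNBC cells cocultured 1:1 (1,500 cells each) with CellTrace Violet stained primary or stromal fibroblasts in 384-well plates in FluoroBrite medium, treated with one of 42 anticancer drugs at 0.1, 1, 10 or 100 uM. JC-1 red fluorescence (mitochondrial integrity in cancer cells only) was read by plate reader every 8 h for 72 h. Values are normalised to each well's pre-drug value. The stock of one drug was tenfold lower, so its dose labels may be too high.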

O=NN(CCCl)C(=O)NCCCl [Carmustine]
relative JC-1 red fluorescence
Conditions | 8 h | 16 h | 24 h | 32 h | 40 h | 48 h | 56 h | 64 h | 72 h
0.1 µM, coculture fibroblast: C12385 | 0.804 | 0.693 | 0.654 | 0.577 | 0.526 | 0.503 | 0.478 | 0.464 | 0.463
0.1 µM, coculture fibroblast: H6013 | 0.827 | 0.722 | 0.665 | 0.634 | 0.5894 | 0.59 | 0.55 | 0.525 | 0.481
0.1 µM, coculture fibroblast: H6019 | 0.7524 | 0.6432 | 0.648 | 0.585 | 0.549 | 0.536 | 0.501 | 0.477 | 0.449
0.1 µM, coculture fibroblast: H6076 | 0.7889 | 0.691 | 0.66 | 0.618 | 0.596 | 0.568 | 0.562 | 0.564 | 0.548
0.1 µM, coculture fibroblast: H6231 | 0.8 | 0.697 | 0.644 | 0.563 | 0.525 | 0.487 | 0.463 | 0.43 | 0.398
0.1 µM, coculture fibroblast: HADF | 0.843 | 0.786 | 0.701 | 0.668 | 0.632 | 0.634 | 0.586 | 0.566 | 0.524
0.1 µM, coculture fibroblast: HCFa | 0.803 | 0.709 | 0.648 | 0.618 | 0.571 | 0.57 | 0.506 | 0.4908 | 0.4347
0.1 µM, coculture fibroblast: HCPF | 0.779 | 0.69 | 0.638 | 0.59 | 0.561 | 0.526 | 0.5 | 0.48 | 0.463
0.1 µM, coculture fibroblast: HHSteC | 0.834 | 0.778 | 0.708 | 0.675 | 0.642 | 0.647 | 0.583 | 0.554 | 0.494
0.1 µM, coculture fibroblast: HMF | 0.796 | 0.703 | 0.636 | 0.596 | 0.576 | 0.539 | 0.538 | 0.524 | 0.504
0.1 µM, coculture fibroblast: HPFa | 0.871 | 0.81 | 0.759 | 0.708 | 0.675 | 0.659 | 0.573 | 0.531 | 0.442
0.1 µM, coculture fibroblast: HUF | 0.842 | 0.735 | 0.703 | 0.626 | 0.568 | 0.536 | 0.503 | 0.484 | 0.478
0.1 µM, coculture fibroblast: Hs5 | 0.792 | 0.735 | 0.712 | 0.663 | 0.647 | 0.612 | 0.612 | 0.57 | 0.551
0.1 µM, coculture fibroblast: Hs27A | 0.7603 | 0.684 | 0.6445 | 0.6132 | 0.592 | 0.638 | 0.551 | 0.53057 | 0.4634
0.1 µM, coculture fibroblast: Hs343T | 0.76 | 0.672 | 0.601 | 0.568 | 0.539 | 0.509 | 0.499 | 0.481 | 0.476
0.1 µM, coculture fibroblast: WS1 | 0.778 | 0.688 | 0.63 | 0.552 | 0.5 | 0.477 | 0.451 | 0.42 | 0.403
1 µM, coculture fibroblast: C12385 | 0.768 | 0.708 | 0.68 | 0.597 | 0.554 | 0.525 | 0.507 | 0.495 | 0.487
1 µM, coculture fibroblast: H6013 | 0.799 | 0.7331 | 0.709 | 0.695 | 0.689 | 0.717 | 0.674 | 0.661 | 0.616
1 µM, coculture fibroblast: H6019 | 0.741 | 0.719 | 0.736 | 0.674 | 0.652 | 0.644 | 0.609 | 0.583 | 0.551
1 µM, coculture fibroblast: H6076 | 0.816 | 0.741 | 0.707 | 0.653 | 0.61 | 0.579 | 0.57 | 0.559 | 0.545
1 µM, coculture fibroblast: H6231 | 0.693 | 0.615 | 0.665 | 0.579 | 0.563 | 0.5419 | 0.5313 | 0.516 | 0.488
1 µM, coculture fibroblast: HADF | 0.865 | 0.774 | 0.764 | 0.748 | 0.746 | 0.786 | 0.73 | 0.736 | 0.693
1 µM, coculture fibroblast: HCFa | 0.794 | 0.699 | 0.662 | 0.628 | 0.599 | 0.617 | 0.554 | 0.547 | 0.482
1 µM, coculture fibroblast: HCPF | 0.732 | 0.683 | 0.6663 | 0.614 | 0.589 | 0.555 | 0.55 | 0.533 | 0.516
1 µM, coculture fibroblast: HHSteC | 0.78 | 0.733 | 0.701 | 0.66 | 0.652 | 0.67 | 0.614 | 0.59 | 0.541
1 µM, coculture fibroblast: HMF | 0.727 | 0.654 | 0.648 | 0.60681 | 0.585 | 0.562 | 0.569 | 0.554 | 0.546
1 µM, coculture fibroblast: HPFa | 0.8901 | 0.828 | 0.797 | 0.746 | 0.721 | 0.722 | 0.628 | 0.593 | 0.502
1 µM, coculture fibroblast: HUF | 0.7943 | 0.717 | 0.693 | 0.6166 | 0.5698 | 0.54529 | 0.521 | 0.5052 | 0.496
1 µM, coculture fibroblast: Hs5 | 0.798 | 0.751 | 0.73409 | 0.6764 | 0.651 | 0.61 | 0.611 | 0.587 | 0.568
1 µM, coculture fibroblast: Hs27A | 0.78 | 0.693 | 0.671 | 0.646 | 0.627 | 0.694 | 0.588 | 0.574 | 0.496
1 µM, coculture fibroblast: Hs343T | 0.699 | 0.629 | 0.601 | 0.56 | 0.527 | 0.494 | 0.49 | 0.487 | 0.4804
1 µM, coculture fibroblast: WS1 | 0.7479 | 0.689 | 0.6682 | 0.5945 | 0.5561 | 0.5342 | 0.5183 | 0.4937 | 0.4803
